Source: PubChem BioAssay AID1671190 (National Center for Advancing Translational Sciences (NCATS), 2021)
Several values for one entry are separate records, joined by “and”; a condition that tells them apart may be missing. Identical values can stand only once. In all, about 580,000 compounds went through this assay and about 6,100 (1.1%) were called active. Inconclusive results, whose numbers are uncertain, are shown with a selection of clear calls. Calls come from the whole dose curve; as a rule, active = well fitted inhibition curve with a large enough effect; inconclusive = small, poorly fitted or top-dose-only effect, or another doubt; inactive = no such curve, though single readings can be large or run the other way. A potency beside an inconclusive call is a rough fit, not a confirmed value.

The chains behind the UniProt entries cited, without tags or fusion partners. Where a name states a change or a piece, a line headed by the entry shows the natural chain unless it says otherwise.
UniProt P18054: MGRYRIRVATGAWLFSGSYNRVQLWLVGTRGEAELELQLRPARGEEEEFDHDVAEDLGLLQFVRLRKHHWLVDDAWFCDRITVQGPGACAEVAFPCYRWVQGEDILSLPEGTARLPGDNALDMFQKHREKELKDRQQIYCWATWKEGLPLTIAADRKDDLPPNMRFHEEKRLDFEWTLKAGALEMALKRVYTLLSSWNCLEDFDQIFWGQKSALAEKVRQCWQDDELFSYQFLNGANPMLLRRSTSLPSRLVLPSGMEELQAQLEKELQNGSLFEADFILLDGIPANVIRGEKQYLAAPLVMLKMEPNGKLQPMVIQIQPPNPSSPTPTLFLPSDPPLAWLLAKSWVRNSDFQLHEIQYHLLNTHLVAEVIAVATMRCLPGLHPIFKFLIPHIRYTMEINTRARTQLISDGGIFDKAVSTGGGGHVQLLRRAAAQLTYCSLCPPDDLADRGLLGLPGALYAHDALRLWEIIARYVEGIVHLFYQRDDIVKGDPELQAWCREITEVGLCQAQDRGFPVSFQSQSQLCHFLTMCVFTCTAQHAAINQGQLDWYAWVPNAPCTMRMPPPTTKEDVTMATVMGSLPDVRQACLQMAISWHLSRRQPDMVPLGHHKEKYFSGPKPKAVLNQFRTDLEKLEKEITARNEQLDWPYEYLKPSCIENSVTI

Each molecule was assayed against Polyunsaturated fatty acid lipoxygenase ALOX12 (Homo sapiens) (UniProt P18054) (assay: Primary qHTS assay for inhibitors of human arachidonate 12S-lipoxygenase (ALOX12): Round 2). Details: purified 12hLO, xylenol orange hydroperoxide absorbance; activity change, negative = inhibition: at 108 µM (top of the series) unless noted.
In short: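 Purified human 12hLO (150 nM final) in 25 mM Hepes, 0.01% Triton X-100, pH 7.0 was preincubated 15 min at room temperature with compound. Then 40 uM arachidonic acid was added, 30 min. Hydroperoxide was read by Fe-XO absorbance ratio 573/405 nm.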
% is set by controls: 0 for no effect and ±100 for the full control effect; potency is the fitted concentration of half-maximal effect.

Row | SMILES | Potency | activity change, negative = inhibition
1 | C/C(=N/NC(=O)c1cc2ccccc2cc1O)C1C(=O)c2ccccc2C1=O | inconclusive: 39.8 µM [inhibitor, partial curve, poor fit] | –
2 | CC(=O)Nc1ccc(S(=O)(=O)NCC(C)NS(=O)(=O)c2ccc(NC(C)=O)cc2)cc1 (stereo not given) | inconclusive: 141 µM [inhibitor, partial curve, poor fit] | –
3 | COc1ccc(/C=C(/C(=O)O)c2cccs2)cc1 | inconclusive: 56.2 µM [inhibitor, partial curve] | –
4 | c1csc(C2Nc3cccc4cccc(c34)N2)c1 | – | inconclusive: -32.3% [inhibitor]
5 | COC(=O)c1sc(N2C(=O)C(=O)/C(=C(/O)c3ccccc3)C2c2ccco2)nc1C (stereo not given) | inconclusive: 44.7 µM [inhibitor, partial curve, poor fit] | –
6 | CC(C)(C)NC(=O)C(c1cc2ccccc2o1)n1c(=O)c(-c2ccco2)nc2ccccc21 (stereo not given) | inconclusive: 44.7 µM [inhibitor, partial curve, poor fit] | –
7 | CC1CN(CC(O)COc2ccccc2C(C)(C)C)CC(C)O1 (stereo not given) | inconclusive: 1.58 µM [inhibitor, partial curve, poor fit] | –
8 | CC(C)(C)c1csc(N/N=C/c2cccnc2)n1 | inconclusive: 56.2 µM [inhibitor, partial curve, poor fit] | –
9 | COc1ccc(-n2c(=O)c3c4c(sc3n(CC(=O)Nc3cc(C)[nH]n3)c2=O)CCC4)c(OC)c1 | – | inactive: -9.19%
10 | O=C(O)c1ccccc1NS(=O)(=O)c1ccc2ccccc2c1 | inconclusive: 50.1 µM [inhibitor, partial curve, poor fit] | –
11 | O=C(CCC1CCN(C(=O)c2cncs2)CC1)Nc1ccccc1 | inconclusive: 31.6 µM [inhibitor, single point] | –
12 | CCc1ccc(CCC(=O)Nc2ccc(C)cc2C)o1 | inconclusive: 44.7 µM [inhibitor, single point] | –
13 | OC1(c2ccc(Br)cc2)CCNCC1 | inconclusive: 31.6 µM [inhibitor, partial curve, poor fit] | –
14 | COc1ccc(-c2cc(NC(C)=O)c3ncc(-c4ccc(OC)c(OC)c4)n3c2)c(OC)c1 | inconclusive: 50.1 µM [inhibitor, partial curve, poor fit] | –
15 | S=c1[nH]nc(Cn2cnc3ccccc32)n1-c1ccccc1 | – | inactive: -28.5%
16 | CCCN1CCC(NC(=O)COc2ccc(Cl)cc2C)CC1 | inconclusive: 44.7 µM [inhibitor, partial curve, poor fit] | –
17 | O=C(NCc1cc2n(n1)CCN(C1CCCCC1)C2)c1noc2c1CCCC2 | – | inactive: 73.8%
18 | CC(C)c1ccc(S(=O)(=O)N2CCC(Oc3ncccc3C(=O)N(C)C)C2)cc1 (stereo not given) | – | inactive: 40.7%
19 | Cc1ccc(S(=O)(=O)c2nnn3c2nc(NCc2ccc(F)cc2)c2ccccc23)cc1C | inconclusive: 100 µM [inhibitor, partial curve, poor fit] | –
20 | Cc1ccc(S(=O)(=O)NCCn2c(C)cnc2C2CCC2)c(C)c1 | – | inactive: 21.8%
21 | O=C(NCCc1c[nH]c2ccc(Cl)cc12)C1CC(=O)N(c2n[nH]c3ccccc23)C1 (stereo not given) | inconclusive: 39.8 µM [inhibitor, full curve] | –
22 | CCOC(=O)c1cc2c(nc1C)-c1cc(Cl)cc(Cl)c1OC2O (stereo not given) | – | inactive: -8.63%

Row | SMILES | Potency | activity change, negative = inhibition
23 | COc1ccc(OC)c(C2C(C(C)=O)=C(O)C(=O)N2c2ccc(O)cc2)c1 (stereo not given) | inconclusive: 25.1 µM [inhibitor, partial curve, poor fit] | –
24 | O=C(Nc1cccc(Br)c1)Nc1nc2c(s1)CCCCCC2 | inconclusive: 63.1 µM [inhibitor, partial curve, poor fit] | –
25 | CCOC(=O)C1CCN(C(=O)c2cnn(-c3ccc(C)cc3)c2-n2cccc2)CC1 | – | inactive: -0.942%
26 | CC(C)c1cccc(NC(=O)c2cccc3ncccc23)c1 | – | inactive: 30.1%
27 | CC(=Nc1ccccc1)C1=C(O)C(Cc2ccccc2)NC1=O (stereo not given) | inconclusive: 7.08 µM [inhibitor, full curve] | –
28 | O=C(O)CC/C(=C/c1cccc(NC(=O)c2ccccc2Cl)c1)c1nc2ccccc2s1 | inconclusive: 35.5 µM [inhibitor, partial curve, poor fit] | –
29 | COc1ccc(OC)c2c(C)cc(N3CCN(C(=O)c4ccc(C)cc4)CC3)nc12 | – | inactive: -2.8%
30 | O=C(CCS(=O)(=O)c1cccc2nsnc12)NC1CCCCC1 | inconclusive: 56.2 µM [inhibitor, partial curve, poor fit] | –
31 | CN(C)c1ccc(C(=O)C(=O)N2CCN(c3ccccc3)CC2)cc1 | inconclusive: 100 µM [inhibitor, single point] | –
32 | O=[N+]([O-])c1ccc(N2CCN(S(=O)(=O)c3ccccc3[N+](=O)[O-])CC2)cc1NCc1cccnc1 | – | inactive: -8.56%
33 | Cn1c(NCc2ccco2)nc2c1c(=O)n(Cc1ccc(Cl)cc1)c(=O)n2C | inconclusive: 63.1 µM [inhibitor, partial curve, poor fit] | –
34 | O=C1c2c(nc(COc3cccc(Cl)c3)n2Cc2ccccc2)NCCN1CCOc1ccccc1 | – | inactive: -7.56%
35 | COc1cccc(C(=O)N(Cc2ccc(N(C)C)cc2)Cc2ccco2)c1 | inconclusive: 158 µM [inhibitor, partial curve, poor fit] | –
36 | NC(=O)c1cccc(-c2ccnc3c2CC(C(=O)NCC2CC2)O3)c1 (stereo not given) | inconclusive: 112 µM [inhibitor, partial curve, poor fit] | –
37 | COc1ccc(-c2cc(-c3n[nH]c(=S)n3-c3cccc4ccccc34)[nH]n2)cc1 | inconclusive: 44.7 µM [inhibitor, partial curve, poor fit] | –
38 | CC(C)NC(=O)CN(C)CC(=O)NC(=O)NCCC1=CCCCC1 | inconclusive: 15.8 µM [inhibitor, full curve, poor fit] | –
39 | O=C(O)/C=C/c1cnc2ccccc2c1 | inconclusive: 70.8 µM [inhibitor, partial curve, poor fit] | –
40 | CSc1nccc(-c2ccc(C)c(C)c2)n1 | inconclusive: 44.7 µM [inhibitor, partial curve, poor fit] | –
41 | CCN(CC)C(=O)COC(=O)c1cc(-c2ccco2)nc2ccccc12 | inconclusive: 31.6 µM [inhibitor, partial curve, poor fit] | –
42 | CC(C)[Si](C#CCN1CCCCC1)(C#CCN1CCCCC1)c1ccccc1 | inconclusive: 10 µM [inhibitor, partial curve, poor fit] | –
43 | Cc1ccccc1NC(=O)C(C#N)=C1CCCCC1 | – | inactive: -8.66%
44 | COc1cc(/C=N/O)cc(I)c1O | inconclusive: 158 µM [inhibitor, single point] | –

Row | SMILES | Potency | activity change, negative = inhibition
45 | O=C(CSc1nc2c([nH]c3ccccc32)c(=O)n1-c1ccc(Cl)cc1)NCc1ccccc1 | inconclusive: 50.1 µM [inhibitor, partial curve, poor fit] | –
46 | CCCCN(CCCC)Cc1cc2ccccc2c2c1COC2 | inconclusive: 6.31 µM [inhibitor, partial curve, poor fit] | –
47 | c1ccc(-c2ccc3ncc(Nc4ccncc4)n3n2)cc1 | – | inactive: 47.7% [at 176 µM]
48 | Cn1ccc2c(N3CCCCCCC3)cc3c(c21)C1CCC3O1 (stereo not given) | inconclusive: 44.7 µM [inhibitor, partial curve, poor fit] | –
49 | CC1=C(C(=O)Nc2ccccc2)C(c2cccc(Br)c2)NC(=S)N1 (stereo not given) | inconclusive: 50.1 µM [inhibitor, partial curve, poor fit] | –
50 | CCc1ccccc1NC(=O)c1cc(-c2ccc(OC)cc2)on1 | inactive | –
51 | COc1ccc(N(C(=O)CCC(=O)Nc2cc(C)on2)C(C(=O)NC2CCCC2)c2ccco2)cc1 (stereo not given) | – | inactive: -6.16%
52 | Cc1cccc(CN2CCN(C3CN(Cc4ccc([N+](=O)[O-])cc4)S(=O)(=O)C3)CC2)c1 (stereo not given) | inconclusive: 141 µM [inhibitor, single point] | –
53 | COc1cn(-c2ccccc2)nc1C(=O)NCc1ccccc1 | inconclusive: 39.8 µM [inhibitor, partial curve, poor fit] | –
54 | O=C(O)COc1ccc(-c2nccc3c2C(=O)N(Cc2ccccc2)CC(CNC(=O)c2ccc(F)cc2)O3)cc1 (stereo not given) | – | inactive: 5.39%
55 | COc1ccc(C(=O)NCC(c2ccco2)N2CCc3ccccc3C2)cc1 (stereo not given) | inconclusive: 50.1 µM [inhibitor, partial curve, poor fit] | –
56 | O=C(Nc1cnn(Cc2ccc(F)cc2)c1)C(c1ccccc1)c1ccccc1 | – | inactive: 0%
57 | Cc1nc(N2CCOCC2)ncc1-c1cc(=O)[nH]c(Nc2cccc(C(F)(F)F)c2)n1 | inconclusive: 79.4 µM [inhibitor, single point] | –
58 | CCOC(CNC(=O)c1cccn2c(=O)c3cc(Cl)ccc3nc12)OCC | – | inactive: 7.21%
59 | N#CC1(C(=O)Nc2cccc(I)c2)CCCC1 | inconclusive: 31.6 µM [inhibitor, partial curve, poor fit] | –
60 | Cc1ccc2[nH]c(=O)c(CN(CCO)Cc3nnnn3CCc3ccccc3)cc2c1 | inconclusive: 22.4 µM [inhibitor, partial curve, poor fit] | –
61 | Cc1ccccc1OCCC(=O)Nc1cc(S(=O)(=O)N2CCCCC2)ccc1N1CCN(C)CC1 | – | inactive: -22.7%
62 | Cc1ccc2[nH]c(=O)c(CN(C(=O)c3cccnc3)C3CCCCC3)cc2c1 | – | inactive: 12%
63 | CCc1nnc(NC(=O)c2ccc(S(=O)(=O)N(CCOC)CCOC)cc2)o1 | – | inactive: 0%
64 | COc1cc(/C=N/Nc2cccc(C)c2)cc(Br)c1O | active: 2.82 µM | –
65 | CN(C)c1nc(-c2cn(CCC#N)c3ccccc23)cs1 | inconclusive: 11.2 µM [inhibitor, full curve, poor fit] and inconclusive: 89.1 µM [inhibitor, partial curve, poor fit] | –
